For at least one compound, name, drawing or mass did not settle the structure.
What was measured:
2.8-kb PGHS mRNA = assay: Northern blot of 2.8-kb PGHS (PGHS-1) mRNA in human monocytes; assay type: cell-based
Method: (§1) Poly-A enriched RNAs (2.5 μg) from C127 cells were fractionated by formaldehyde-agarose gel electrophoresis and transferred to a membrane (Duralon, Stratagene). Hybridization was carried out as previously described by O'Banion et al., 1991, J. Virol., 65:3481-3488, using the 5′ 1.2 kb EcoRI fragment of the 4.1 kb cDNA labeled with ^32P by random priming as disclosed by Feinberg et al., 1983, Anal. Biochem., 132:6-13. The membrane was later rehybridized with a similarly labeled portion (1.6 kb 5′ end) of the 2.8 kb ovine PGHS cDNA (Oxford Biomedical Research, Inc.), and an end-labeled 40-mer complimentary to β-tubulin (Oncor). RNA molecular weight markers (Life Technologies) were visualized by ethidium bromide staining. A similar analysis was performed on total RNA (5 μg/lane) isolated from human monocytes by the guanidinium-acid-phenol extraction method of Chomczynski et al., 1987, Anal. Biochem., 162:156-159.
(§2) Adherent human monocytes isolated from healthy donors as described by Roberts et al., 1978, J. Immunol, 121:1052-1058, were suspended in M199 medium without serum at 1×10^6 cells/ml. one ml aliquots in 5 ml polypropylene tubes were incubated with loosened caps in 5% CO2 at 37° C. with occasional shaking. […]

[1] = tested on: griPGHS mRNA (4.8-kb mRNA); assay: Northern blot of griPGHS (PGHS-2) mRNA in human monocytes; assay type: cell-based; conditions: dexamethasone 1 μM present with IL-1β
Method: as §1, §2

C[C@@H]1C[C@H]2[C@@H]3CCC4=CC(=O)C=C[C@]4(C)[C@@]3(F)[C@@H](O)C[C@]2(C)[C@@]1(O)C(=O)CO [dexamethasone]
levels of the 2.8-kb mRNA relative to β-tubulin (2.8-kb PGHS mRNA; IL-1β, dexamethasone or cycloheximide treatment): not significantly altered | level of the 2.8-kb PGHS mRNA (2.8-kb PGHS mRNA; dexamethasone 1 μM, 4 hr): not affected | effect on IL-1β-induced increases of griPGHS mRNA [1]: significantly blunted

Reference: patent US20040014702A1, “Mammalian prostaglandin H synthase-2” (priority 1992, published 2004)
